The effect of the compound repeats well; differences between the knockouts mostly do not.
Columns and labels:
Assay in all cases: relative cell number vs DMSO control (72 h) (% of DMSO); higher = less growth inhibition (more cells)
BT-20 = tested on: BT-20
Description: (§1)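 QMAP-Seq: a pool of 5 breast cancer cell lines (ZR-75-1, SKBR3, HCC-38, MDA-MB-231, BT-20), each carrying 12 doxycycline-inducible Cas9 sgRNA perturbations (11 knockouts plus non-targeting sgNT), was treated with compounds for 72 h at four 10-fold doses (10 nM-10 uM or 1 nM-1 uM range). Barcodes were amplified and sequenced, and cell number was interpolated from 293T spike-in standard curves. The result is expressed as % of the median of DMSO wells. Two biological replicates.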

SKBR3 = tested on: SKBR3
Description: as §1

ZR-75-1 = tested on: ZR-75-1
Description: as §1

CCCc1nn(C)c2c(=O)[nH]c(-c3cc(S(=O)(=O)N4CCN(C)CC4)ccc3OCC)nc12 [Sildenafil]
relative cell number
Conditions	BT-20	SKBR3	ZR-75-1
sgRNA knockout: sgATF3, 10 nM	103	80.8	83.6
sgRNA knockout: sgATF3, 100 nM	95.6	83.9	116
sgRNA knockout: sgATF3, 1000 nM	93.8	93.1	69.5
sgRNA knockout: sgATF3, 10000 nM	93.9	82.4	96.4
sgRNA knockout: sgATF4, 10 nM	89.8	90.2	96.6
sgRNA knockout: sgATF4, 100 nM	98.9	84.6	77
sgRNA knockout: sgATF4, 1000 nM	113.5	85.4	97
sgRNA knockout: sgATF4, 10000 nM	107	97.2	82.1
sgRNA knockout: sgATF6, 10 nM	102	84.2	97.6
sgRNA knockout: sgATF6, 100 nM	98.8	102	112
sgRNA knockout: sgATF6, 1000 nM	97.4	90.3	89.6
sgRNA knockout: sgATF6, 10000 nM	86.5	84.6	78.8
sgRNA knockout: sgATG7, 10 nM	88.9	107	90.5
sgRNA knockout: sgATG7, 100 nM	104	78.4	119
sgRNA knockout: sgATG7, 1000 nM	108	64.4	104
sgRNA knockout: sgATG7, 10000 nM	106	79.8	54.7
sgRNA knockout: sgERN1, 10 nM	86.8	95.1	79.4
sgRNA knockout: sgERN1, 100 nM	109	90	91.9
sgRNA knockout: sgERN1, 1000 nM	95	91.5	94.8
sgRNA knockout: sgERN1, 10000 nM	93.8	92.2	95.6
sgRNA knockout: sgHSF1, 10 nM	96.2	98.4	–
sgRNA knockout: sgHSF1, 100 nM	99.9	85.3	–
sgRNA knockout: sgHSF1, 1000 nM	99.02	73.8	–
sgRNA knockout: sgHSF1, 10000 nM	111	86.9	–
sgRNA knockout: sgHSF2, 10 nM	86	80.2	98.7
sgRNA knockout: sgHSF2, 100 nM	104	89.4	112
sgRNA knockout: sgHSF2, 1000 nM	84	78.2	122
sgRNA knockout: sgHSF2, 10000 nM	89.7	84.2	81.2
sgRNA knockout: sgKEAP1, 10 nM	82.4	109	–
sgRNA knockout: sgKEAP1, 100 nM	90.6	88.7	–
sgRNA knockout: sgKEAP1, 1000 nM	102	77	–
sgRNA knockout: sgKEAP1, 10000 nM	95.4	74.8	–
sgRNA knockout: sgNFE2L2, 10 nM	94	89.2	102
sgRNA knockout: sgNFE2L2, 100 nM	106	109	102
sgRNA knockout: sgNFE2L2, 1000 nM	85.6	94.9	117
sgRNA knockout: sgNFE2L2, 10000 nM	95.9	118	86
sgRNA knockout: sgSLC35F2, 10 nM	108	93.4	68.9
sgRNA knockout: sgSLC35F2, 100 nM	106	112	49.6
sgRNA knockout: sgSLC35F2, 1000 nM	102	83.5	86.2
sgRNA knockout: sgSLC35F2, 10000 nM	95.5	79.1	105
sgRNA knockout: sgXBP1, 10 nM	95	81	95.1
sgRNA knockout: sgXBP1, 100 nM	98.4	115	110.5
sgRNA knockout: sgXBP1, 1000 nM	108	74	118
sgRNA knockout: sgXBP1, 10000 nM	110	82.3	85.07

C=CC[C@@H]1/C=C(\C)C[C@H](C)C[C@H](OC)[C@H]2O[C@@](O)(C(=O)C(=O)N3CCCC[C@H]3C(=O)O[C@H](/C(C)=C/[C@@H]3CC[C@@H](O)[C@H](OC)C3)[C@H](C)[C@@H](O)CC1=O)[C@H](C)C[C@@H]2OC [Tacrolimus]
relative cell number
Conditions	BT-20	SKBR3	ZR-75-1
sgRNA knockout: sgATF3, 10 nM	119	129	89
sgRNA knockout: sgATF3, 100 nM	93.8	110	113
sgRNA knockout: sgATF3, 1000 nM	110	108	101
sgRNA knockout: sgATF3, 10000 nM	111	125	123
sgRNA knockout: sgATF4, 10 nM	127	96.5	106
sgRNA knockout: sgATF4, 100 nM	96.4	88.7	99.5
sgRNA knockout: sgATF4, 1000 nM	101	101	117
sgRNA knockout: sgATF4, 10000 nM	117	94.1	174
sgRNA knockout: sgATF6, 10 nM	111	105	141
sgRNA knockout: sgATF6, 100 nM	113	87.6	102
sgRNA knockout: sgATF6, 1000 nM	96.41	90.5	120
sgRNA knockout: sgATF6, 10000 nM	93	73.3	142
sgRNA knockout: sgATG7, 10 nM	121	114	85.6
sgRNA knockout: sgATG7, 100 nM	92.3	97.4	106
sgRNA knockout: sgATG7, 1000 nM	100	106	114
sgRNA knockout: sgATG7, 10000 nM	115	104	97.8
sgRNA knockout: sgERN1, 10 nM	110	128	97
sgRNA knockout: sgERN1, 100 nM	93.38	114	85.8
sgRNA knockout: sgERN1, 1000 nM	113	101	110
sgRNA knockout: sgERN1, 10000 nM	109	119	105
sgRNA knockout: sgHSF1, 10 nM	123	103	–
sgRNA knockout: sgHSF1, 100 nM	83.7	80.4	–
sgRNA knockout: sgHSF1, 1000 nM	98.4	90.97	–
sgRNA knockout: sgHSF1, 10000 nM	101	79.9	–
sgRNA knockout: sgHSF2, 10 nM	119	93.4	88.1
sgRNA knockout: sgHSF2, 100 nM	91.1	81.1	93.7
sgRNA knockout: sgHSF2, 1000 nM	107	91.2	121
sgRNA knockout: sgHSF2, 10000 nM	113	99.8	103
sgRNA knockout: sgKEAP1, 10 nM	116	83.9	–
sgRNA knockout: sgKEAP1, 100 nM	97	81.9	–
sgRNA knockout: sgKEAP1, 1000 nM	106	81.7	–
sgRNA knockout: sgKEAP1, 10000 nM	96	85.7	–
sgRNA knockout: sgNFE2L2, 10 nM	138	121	117
sgRNA knockout: sgNFE2L2, 100 nM	108	94.3	113
sgRNA knockout: sgNFE2L2, 1000 nM	135	110	117
sgRNA knockout: sgNFE2L2, 10000 nM	147	115	144
sgRNA knockout: sgSLC35F2, 10 nM	124	124	115
sgRNA knockout: sgSLC35F2, 100 nM	107	70.7	115
sgRNA knockout: sgSLC35F2, 1000 nM	116	90.2	147
sgRNA knockout: sgSLC35F2, 10000 nM	88.9	79.9	121
sgRNA knockout: sgXBP1, 10 nM	108	139	111
sgRNA knockout: sgXBP1, 100 nM	104	109	99.6
sgRNA knockout: sgXBP1, 1000 nM	116	98.3	110
sgRNA knockout: sgXBP1, 10000 nM	113.6	133	113

COc1cc([C@@H]2c3cc4c(cc3[C@@H](O[C@@H]3O[C@@H]5CO[C@@H](c6cccs6)O[C@H]5[C@H](O)[C@H]3O)[C@H]3COC(=O)[C@H]23)OCO4)cc(OC)c1O [Teniposide]
relative cell number
Conditions	BT-20	SKBR3	ZR-75-1
sgRNA knockout: sgATF3, 10 nM	99.4	91.4	86.9
sgRNA knockout: sgATF3, 100 nM	62.6	37.9	33.8
sgRNA knockout: sgATF3, 1000 nM	36.9	18.1	48.6
sgRNA knockout: sgATF3, 10000 nM	19.9	10.3	21.6
sgRNA knockout: sgATF4, 10 nM	105	90.6	81.3
sgRNA knockout: sgATF4, 100 nM	63.8	46.9	52.6
sgRNA knockout: sgATF4, 1000 nM	44.4	21.4	42.2
sgRNA knockout: sgATF4, 10000 nM	27.4	6.64	32.5
sgRNA knockout: sgATF6, 10 nM	95.4	91.8	101
sgRNA knockout: sgATF6, 100 nM	52.3	41.9	24.1
sgRNA knockout: sgATF6, 1000 nM	45	18.7	31.1
sgRNA knockout: sgATF6, 10000 nM	25.9	6.86	33
sgRNA knockout: sgATG7, 10 nM	106	105	87.6
sgRNA knockout: sgATG7, 100 nM	66.2	47.6	45.1
sgRNA knockout: sgATG7, 1000 nM	47.1	20.5	35.9
sgRNA knockout: sgATG7, 10000 nM	22.5	8.34	21.9
sgRNA knockout: sgERN1, 10 nM	97.3	83.54	90.1
sgRNA knockout: sgERN1, 100 nM	67.4	39.4	52.4
sgRNA knockout: sgERN1, 1000 nM	48.7	21.1	35.7
sgRNA knockout: sgERN1, 10000 nM	24.9	9.68	30.6
sgRNA knockout: sgHSF1, 10 nM	88.2	86.3	–
sgRNA knockout: sgHSF1, 100 nM	53.5	38.7	–
sgRNA knockout: sgHSF1, 1000 nM	46.9	20.3	–
sgRNA knockout: sgHSF1, 10000 nM	25.9	9.65	–
sgRNA knockout: sgHSF2, 10 nM	95.8	80.7	76.9
sgRNA knockout: sgHSF2, 100 nM	67	43.2	35.37
sgRNA knockout: sgHSF2, 1000 nM	53.2	25.8	37.73
sgRNA knockout: sgHSF2, 10000 nM	22.9	9.18	18.8
sgRNA knockout: sgKEAP1, 10 nM	89.4	85.7	–
sgRNA knockout: sgKEAP1, 100 nM	64.79	40.1	–
sgRNA knockout: sgKEAP1, 1000 nM	49	15.6	–
sgRNA knockout: sgKEAP1, 10000 nM	24.1	6.36	–
sgRNA knockout: sgNFE2L2, 10 nM	106	86.9	61.5
sgRNA knockout: sgNFE2L2, 100 nM	44.4	40.6	35.5
sgRNA knockout: sgNFE2L2, 1000 nM	48.3	19.4	31.5
sgRNA knockout: sgNFE2L2, 10000 nM	29.3	9.33	22.7
sgRNA knockout: sgSLC35F2, 10 nM	105	81.2	75.5
sgRNA knockout: sgSLC35F2, 100 nM	51.9	39.9	19.7
sgRNA knockout: sgSLC35F2, 1000 nM	48.9	18.9	38.7
sgRNA knockout: sgSLC35F2, 10000 nM	25.6	11.5	20.6
sgRNA knockout: sgXBP1, 10 nM	100	103	64.8
sgRNA knockout: sgXBP1, 100 nM	59.3	39.9	45.2
sgRNA knockout: sgXBP1, 1000 nM	51.7	17.4	32.1
sgRNA knockout: sgXBP1, 10000 nM	26.4	9.52	22.9

Source: the supplement of paper PMC7661543
